Assay: general procedure: Fmoc solid-phase peptide synthesis
Settings: whole synthesis

| Substance | isolated yield [%] |
| --- | --- |
| TAMRA-Ahx-T-Aha-KKMRR-Aha-R-NH2 | 8 |
| TAMRA-Ahx-T-Aza-KKMRR-Aza-R-NH2 | 5 |
| TAMRA-Ahx-TNKKMRRNRFK-NH2 | 25 |
